Not every detail of the peptide structures is certain; ends, links or a residue may be inferred. Peptide text beside a SMILES is read from it. * marks the point of attachment. Fluorescein(5-NHCOCH2) = O=C(C*)Nc1ccc2c(c1)C(=O)OC21c2ccc(O)cc2Oc2cc(O)ccc21
How the values were obtained:
Assay type in all cases: binding
[1] = molecular target: T1, CBP KIX Y658A (Mus musculus, UniProt P45481, Y658A); test: Equilibrium fluorescence polarization, CBP KIX variant Y658A
T1 construct: made in house; host or cells: E. coli BL21(DE3) pArg

Chains of the proteins cited; added tags and fusions are not shown. Residues count along the entry.
UniProt P45481, 586-665 Y658A limits assumed: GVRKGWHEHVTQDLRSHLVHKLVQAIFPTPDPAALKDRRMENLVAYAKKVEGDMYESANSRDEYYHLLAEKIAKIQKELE
UniProt P45481, 586-665 Y650A limits assumed: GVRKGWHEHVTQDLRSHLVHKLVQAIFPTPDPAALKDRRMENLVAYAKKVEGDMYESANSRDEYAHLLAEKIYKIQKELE
UniProt P45481, 586-665 L603A limits assumed: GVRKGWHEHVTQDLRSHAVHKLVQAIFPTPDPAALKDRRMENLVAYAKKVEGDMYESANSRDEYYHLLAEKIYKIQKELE
UniProt P45481, 586-665 K606A limits assumed: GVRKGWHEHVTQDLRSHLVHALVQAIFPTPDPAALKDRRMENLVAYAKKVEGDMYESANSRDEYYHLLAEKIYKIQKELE
UniProt P45481, 586-665 L599A limits assumed: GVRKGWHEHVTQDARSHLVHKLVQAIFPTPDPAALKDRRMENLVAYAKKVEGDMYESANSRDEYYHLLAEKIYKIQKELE
UniProt P45481, 586-665 Q661A limits assumed: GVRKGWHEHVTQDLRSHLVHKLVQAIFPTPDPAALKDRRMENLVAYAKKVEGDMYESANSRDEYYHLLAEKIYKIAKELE
UniProt P45481, 586-665 K662A limits assumed: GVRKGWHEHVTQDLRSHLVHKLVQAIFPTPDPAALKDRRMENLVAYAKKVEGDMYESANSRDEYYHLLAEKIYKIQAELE
UniProt P45481, 586-665 L652A/L653A: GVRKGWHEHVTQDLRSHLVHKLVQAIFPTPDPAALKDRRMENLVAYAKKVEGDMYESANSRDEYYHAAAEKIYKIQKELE
UniProt P45481, 586-665 E655A limits assumed: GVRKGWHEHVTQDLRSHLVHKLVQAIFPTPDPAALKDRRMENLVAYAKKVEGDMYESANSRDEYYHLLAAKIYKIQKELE
UniProt P45481, 586-665 I660A limits assumed: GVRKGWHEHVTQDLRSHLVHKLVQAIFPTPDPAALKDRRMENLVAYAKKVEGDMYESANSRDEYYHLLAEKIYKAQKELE
UniProt P45481, 586-665 Y658F limits assumed: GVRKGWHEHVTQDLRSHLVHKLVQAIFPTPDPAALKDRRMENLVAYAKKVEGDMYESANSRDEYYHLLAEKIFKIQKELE
UniProt P45481, 586-665 I657A limits assumed: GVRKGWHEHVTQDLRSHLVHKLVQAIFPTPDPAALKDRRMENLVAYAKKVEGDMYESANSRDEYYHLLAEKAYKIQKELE

[2] = molecular target: T2, CBP KIX Y650A (Mus musculus, UniProt P45481, Y650A); test: Equilibrium fluorescence polarization, CBP KIX variant Y650A
T2 construct: made in house; host or cells: E. coli BL21(DE3) pArg

[3] = molecular target: T3, CBP KIX L603A (Mus musculus, UniProt P45481, L603A); test: Equilibrium fluorescence polarization, CBP KIX variant L603A
T3 construct: made in house; host or cells: E. coli BL21(DE3) pArg

[4] = molecular target: T4, CBP KIX K606A (Mus musculus, UniProt P45481, K606A); test: Equilibrium fluorescence polarization, CBP KIX variant K606A
T4 construct: made in house; host or cells: E. coli BL21(DE3) pArg

[5] = molecular target: T5, CBP KIX L599A (Mus musculus, UniProt P45481, L599A); test: Equilibrium fluorescence polarization, CBP KIX variant L599A
T5 construct: made in house; host or cells: E. coli BL21(DE3) pArg

[6] = molecular target: T6, CBP KIX Q661A (Mus musculus, UniProt P45481, Q661A); test: Equilibrium fluorescence polarization, CBP KIX variant Q661A
T6 construct: made in house; host or cells: E. coli BL21(DE3) pArg

[7] = molecular target: T7, CBP KIX K662A (Mus musculus, UniProt P45481, K662A); test: Equilibrium fluorescence polarization, CBP KIX variant K662A
T7 construct: made in house; host or cells: E. coli BL21(DE3) pArg

[8] = molecular target: T8, CBP KIX LL652-3AA (Mus musculus, UniProt P45481, L652A/L653A); test: Equilibrium fluorescence polarization, CBP KIX variant LL652-3AA
T8 construct: made in house; host or cells: E. coli BL21(DE3) pArg

[9] = molecular target: T9, CBP KIX E655A (Mus musculus, UniProt P45481, E655A); test: Equilibrium fluorescence polarization, CBP KIX variant E655A
T9 construct: made in house; host or cells: E. coli BL21(DE3) pArg

[10] = molecular target: T10, CBP KIX I660A (Mus musculus, UniProt P45481, I660A); test: Equilibrium fluorescence polarization, CBP KIX variant I660A
T10 construct: made in house; host or cells: E. coli BL21(DE3) pArg

[11] = molecular target: T11, CBP KIX Y658F (Mus musculus, UniProt P45481, Y658F); test: Equilibrium fluorescence polarization, CBP KIX variant Y658F
T11 construct: made in house; host or cells: E. coli BL21(DE3) pArg

[12] = molecular target: T12, CBP KIX I657A (Mus musculus, UniProt P45481, I657A); test: Equilibrium fluorescence polarization, CBP KIX variant I657A
T12 construct: made in house; host or cells: E. coli BL21(DE3) pArg

CC[C@H](C)[C@H](NC(=O)[C@H](Cc1ccc(O)cc1)NC(=O)[C@H](Cc1ccccc1)NC(=O)[C@H](Cc1ccccc1)NC(=O)[C@H](COP(=O)(O)O)NC(=O)[C@H](CC(C)C)NC(=O)[C@H](CCCNC(=N)N)NC(=O)[C@H](CCCNC(=N)N)NC(=O)[C@@H](NC(=O)[C@@H]1CCCN1C(=O)[C@H](C)NC(=O)[C@H](CC(=O)O)NC(=O)[C@H](CC(=O)O)NC(=O)CNC(=O)[C@@H]1CCCN1C(=O)[C@H](Cc1ccc(O)cc1)NC(=O)[C@@H](NC(=O)[C@@H]1CCCN1C(=O)[C@H](CCC(N)=O)NC(=O)[C@H](CO)NC(=O)[C@@H]1CCCN1C(=O)CN)[C@@H](C)O)C(C)C)C(=O)N[C@@H](CC(C)C)C(=O)N[C@@H](CC(C)C)C(=O)N[C@@H](CC(=O)O)C(=O)N[C@@H](CC(C)C)C(=O)N[C@@H](Cc1ccc(O)cc1)C(=O)N[C@@H](CC(C)C)C(=O)N[C@@H](CC(=O)O)C(=O)N[C@@H](C)C(=O)N1CCC[C@H]1C(=O)NCC(=O)N[C@H](C(=O)N[C@@H](CSCC(=O)Nc1ccc2c(c1)C(=O)OC21c2ccc(O)cc2Oc2cc(O)ccc21)C(N)=O)C(C)C [PPKID4]
ΔΔG vs wild type CBP KIX, Y658A [1]: 1.1 kcal/mol
ΔΔG vs wild type CBP KIX, Y650A [2]: 0.95 kcal/mol
ΔΔG vs wild type CBP KIX, L603A [3]: 1.0 kcal/mol
ΔΔG vs wild type CBP KIX, K606A [4]: 0.97 kcal/mol
ΔΔG vs wild type CBP KIX, L599A [5]: 0.58 kcal/mol
ΔΔG vs wild type CBP KIX, Q661A [6]: 0.35 kcal/mol
ΔΔG vs wild type CBP KIX, K662A [7]: 1.1 kcal/mol
ΔΔG vs wild type CBP KIX, LL652-3AA [8]: 0.93 kcal/mol
ΔΔG vs wild type CBP KIX, E655A [9]: -0.07 kcal/mol
ΔΔG vs wild type CBP KIX, I660A [10]: 0.35 kcal/mol
ΔΔG vs wild type CBP KIX, Y658F [11]: 1.1 kcal/mol
ΔΔG vs wild type CBP KIX, I657A [12]: 0.89 kcal/mol

CC[C@H](C)[C@H](NC(=O)CN)C(=O)N[C@@H](CO)C(=O)N[C@@H](Cc1c[nH]c2ccccc12)C(=O)N1CCC[C@H]1C(=O)N[C@H](C(=O)N[C@@H](Cc1ccccc1)C(=O)N[C@@H](CCC(=O)O)C(=O)NCC(=O)N[C@@H](CC(=O)O)C(=O)N[C@@H](CC(=O)O)C(=O)N[C@@H](C)C(=O)N1CCC[C@H]1C(=O)N[C@H](C(=O)N[C@@H](CCCNC(=N)N)C(=O)N[C@@H](CCCNC(=N)N)C(=O)N[C@@H](CC(C)C)C(=O)N[C@@H](CO)C(=O)N[C@@H](Cc1ccccc1)C(=O)N[C@@H](Cc1ccccc1)C(=O)N[C@@H](Cc1ccc(O)cc1)C(=O)N[C@H](C(=O)N[C@@H](CC(C)C)C(=O)N[C@@H](CC(C)C)C(=O)N[C@@H](CC(=O)O)C(=O)N[C@@H](CC(C)C)C(=O)N[C@@H](Cc1ccc(O)cc1)C(=O)N[C@@H](CC(C)C)C(=O)N[C@@H](CC(=O)O)C(=O)N[C@@H](C)C(=O)N1CCC[C@H]1C(=O)NCC(=O)N[C@H](C(=O)N[C@@H](CSCC(=O)Nc1ccc2c(c1)C(=O)OC21c2ccc(O)cc2Oc2cc(O)ccc21)C(N)=O)C(C)C)[C@@H](C)CC)C(C)C)[C@@H](C)O [PPKID6] (H-GISWPTFEGDDAPVRRLSFFYILLDLYLDAPGVC(Fluorescein(5-NHCOCH2))-NH2)
ΔΔG vs wild type CBP KIX, Y650A [2]: 0.52 kcal/mol
ΔΔG vs wild type CBP KIX, L603A [3]: 0.91 kcal/mol
ΔΔG vs wild type CBP KIX, K606A [4]: 0.47 kcal/mol
ΔΔG vs wild type CBP KIX, L599A [5]: 1.1 kcal/mol
ΔΔG vs wild type CBP KIX, K662A [7]: 0.71 kcal/mol
ΔΔG vs wild type CBP KIX, E655A [9]: 0.68 kcal/mol
ΔΔG vs wild type CBP KIX, I660A [10]: 1.4 kcal/mol
ΔΔG vs wild type CBP KIX, Y658F [11]: 0.97 kcal/mol
ΔΔG vs wild type CBP KIX, I657A [12]: 1.1 kcal/mol
